According to the supplement of paper PMC10849652:
The list shows a part of the results.

Amino acid sequences for entries named in this document (tags omitted). A change or cut given only in a name is not applied to a line headed by its entry.
UniProt P23219, whole entry, looked up: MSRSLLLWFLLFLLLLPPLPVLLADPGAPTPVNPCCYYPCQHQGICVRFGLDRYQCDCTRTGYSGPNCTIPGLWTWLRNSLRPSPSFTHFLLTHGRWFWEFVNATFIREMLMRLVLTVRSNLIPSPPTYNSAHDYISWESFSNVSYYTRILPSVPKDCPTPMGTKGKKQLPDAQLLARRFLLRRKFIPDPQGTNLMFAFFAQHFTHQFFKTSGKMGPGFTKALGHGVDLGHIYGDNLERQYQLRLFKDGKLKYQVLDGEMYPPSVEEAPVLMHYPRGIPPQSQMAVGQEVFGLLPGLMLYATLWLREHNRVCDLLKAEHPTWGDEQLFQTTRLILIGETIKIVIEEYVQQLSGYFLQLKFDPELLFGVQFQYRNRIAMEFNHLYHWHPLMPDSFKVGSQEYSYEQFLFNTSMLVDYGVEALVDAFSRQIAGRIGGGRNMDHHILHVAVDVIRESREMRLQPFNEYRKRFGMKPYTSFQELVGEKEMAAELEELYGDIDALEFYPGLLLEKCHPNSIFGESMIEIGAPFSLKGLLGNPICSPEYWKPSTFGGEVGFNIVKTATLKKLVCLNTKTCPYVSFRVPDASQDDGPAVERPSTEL
UniProt P43686, whole entry, looked up: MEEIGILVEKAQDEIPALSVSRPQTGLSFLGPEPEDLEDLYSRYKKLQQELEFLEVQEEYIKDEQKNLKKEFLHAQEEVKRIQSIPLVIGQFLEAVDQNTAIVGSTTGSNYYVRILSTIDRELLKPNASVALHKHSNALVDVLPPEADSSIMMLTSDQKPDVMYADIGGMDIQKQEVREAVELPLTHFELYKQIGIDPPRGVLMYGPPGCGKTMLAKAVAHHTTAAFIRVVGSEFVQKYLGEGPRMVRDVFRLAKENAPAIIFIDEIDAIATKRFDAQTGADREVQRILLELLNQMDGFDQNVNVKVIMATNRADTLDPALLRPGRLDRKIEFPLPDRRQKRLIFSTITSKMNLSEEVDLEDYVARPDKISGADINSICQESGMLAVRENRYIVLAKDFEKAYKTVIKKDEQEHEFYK
UniProt Q5JS54: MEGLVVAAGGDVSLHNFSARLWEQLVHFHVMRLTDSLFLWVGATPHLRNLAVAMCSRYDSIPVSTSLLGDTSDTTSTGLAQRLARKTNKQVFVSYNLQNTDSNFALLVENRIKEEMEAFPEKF
UniProt P07602: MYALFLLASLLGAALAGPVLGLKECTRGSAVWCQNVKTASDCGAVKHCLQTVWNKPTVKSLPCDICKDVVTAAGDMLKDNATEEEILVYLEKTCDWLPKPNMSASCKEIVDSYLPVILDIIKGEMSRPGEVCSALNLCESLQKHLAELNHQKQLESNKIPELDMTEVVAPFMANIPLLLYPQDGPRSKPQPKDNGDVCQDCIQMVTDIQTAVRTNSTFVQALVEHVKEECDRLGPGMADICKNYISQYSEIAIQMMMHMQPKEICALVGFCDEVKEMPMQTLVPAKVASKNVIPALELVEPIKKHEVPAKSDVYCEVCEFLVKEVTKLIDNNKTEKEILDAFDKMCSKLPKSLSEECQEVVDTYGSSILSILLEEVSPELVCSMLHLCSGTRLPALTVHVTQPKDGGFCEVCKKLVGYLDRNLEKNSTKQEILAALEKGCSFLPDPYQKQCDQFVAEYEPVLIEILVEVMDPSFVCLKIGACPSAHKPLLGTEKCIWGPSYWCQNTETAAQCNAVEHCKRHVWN
UniProt P20962: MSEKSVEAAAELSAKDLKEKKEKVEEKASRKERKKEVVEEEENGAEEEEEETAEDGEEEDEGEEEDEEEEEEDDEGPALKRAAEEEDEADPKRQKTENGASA
UniProt P62333, whole entry, looked up: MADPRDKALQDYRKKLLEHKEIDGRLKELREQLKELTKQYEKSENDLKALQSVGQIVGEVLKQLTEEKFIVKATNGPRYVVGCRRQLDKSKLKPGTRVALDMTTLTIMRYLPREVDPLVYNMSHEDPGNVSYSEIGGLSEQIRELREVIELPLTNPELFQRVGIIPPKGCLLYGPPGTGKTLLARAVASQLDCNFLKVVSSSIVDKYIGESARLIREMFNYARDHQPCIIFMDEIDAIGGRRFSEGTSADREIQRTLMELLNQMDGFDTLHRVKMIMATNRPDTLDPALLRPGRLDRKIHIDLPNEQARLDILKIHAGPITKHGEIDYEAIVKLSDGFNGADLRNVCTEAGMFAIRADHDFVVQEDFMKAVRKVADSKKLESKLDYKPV
UniProt Q13200: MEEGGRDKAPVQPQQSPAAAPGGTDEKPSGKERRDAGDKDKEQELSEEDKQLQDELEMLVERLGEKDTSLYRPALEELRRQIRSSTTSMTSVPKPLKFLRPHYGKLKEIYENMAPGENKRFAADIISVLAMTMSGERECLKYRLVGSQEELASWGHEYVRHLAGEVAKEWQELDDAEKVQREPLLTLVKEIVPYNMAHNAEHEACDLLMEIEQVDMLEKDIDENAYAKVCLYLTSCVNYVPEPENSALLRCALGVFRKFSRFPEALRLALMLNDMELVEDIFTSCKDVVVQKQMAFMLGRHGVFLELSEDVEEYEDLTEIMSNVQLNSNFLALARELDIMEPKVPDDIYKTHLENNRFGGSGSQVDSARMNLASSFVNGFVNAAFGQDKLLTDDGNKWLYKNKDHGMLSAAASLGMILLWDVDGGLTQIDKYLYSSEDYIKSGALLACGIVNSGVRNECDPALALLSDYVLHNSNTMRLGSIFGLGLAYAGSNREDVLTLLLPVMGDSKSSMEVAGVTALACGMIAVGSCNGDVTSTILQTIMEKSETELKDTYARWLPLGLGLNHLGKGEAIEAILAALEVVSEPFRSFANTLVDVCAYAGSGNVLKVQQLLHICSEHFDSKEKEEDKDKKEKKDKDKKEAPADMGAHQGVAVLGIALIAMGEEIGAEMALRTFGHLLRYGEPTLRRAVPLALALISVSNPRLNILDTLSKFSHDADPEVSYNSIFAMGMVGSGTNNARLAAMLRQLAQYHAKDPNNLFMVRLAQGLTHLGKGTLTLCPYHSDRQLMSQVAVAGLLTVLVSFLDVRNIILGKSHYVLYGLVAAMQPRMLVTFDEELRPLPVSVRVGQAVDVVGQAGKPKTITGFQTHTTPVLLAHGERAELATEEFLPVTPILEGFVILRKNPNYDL
UniProt Q9UHX1: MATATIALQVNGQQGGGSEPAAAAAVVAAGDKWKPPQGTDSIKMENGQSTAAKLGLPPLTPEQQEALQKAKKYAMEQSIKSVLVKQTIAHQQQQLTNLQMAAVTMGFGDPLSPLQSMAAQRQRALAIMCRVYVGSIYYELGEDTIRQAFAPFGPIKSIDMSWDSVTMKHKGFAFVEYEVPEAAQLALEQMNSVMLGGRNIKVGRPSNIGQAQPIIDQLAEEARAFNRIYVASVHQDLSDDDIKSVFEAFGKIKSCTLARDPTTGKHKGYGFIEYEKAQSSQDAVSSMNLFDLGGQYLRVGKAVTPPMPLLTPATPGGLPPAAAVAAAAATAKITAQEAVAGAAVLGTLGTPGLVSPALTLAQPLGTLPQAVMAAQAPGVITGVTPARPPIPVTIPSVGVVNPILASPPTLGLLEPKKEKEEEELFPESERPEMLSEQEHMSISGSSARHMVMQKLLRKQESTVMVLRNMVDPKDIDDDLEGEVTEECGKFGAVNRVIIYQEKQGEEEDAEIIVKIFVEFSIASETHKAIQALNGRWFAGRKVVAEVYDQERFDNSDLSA
UniProt P47897: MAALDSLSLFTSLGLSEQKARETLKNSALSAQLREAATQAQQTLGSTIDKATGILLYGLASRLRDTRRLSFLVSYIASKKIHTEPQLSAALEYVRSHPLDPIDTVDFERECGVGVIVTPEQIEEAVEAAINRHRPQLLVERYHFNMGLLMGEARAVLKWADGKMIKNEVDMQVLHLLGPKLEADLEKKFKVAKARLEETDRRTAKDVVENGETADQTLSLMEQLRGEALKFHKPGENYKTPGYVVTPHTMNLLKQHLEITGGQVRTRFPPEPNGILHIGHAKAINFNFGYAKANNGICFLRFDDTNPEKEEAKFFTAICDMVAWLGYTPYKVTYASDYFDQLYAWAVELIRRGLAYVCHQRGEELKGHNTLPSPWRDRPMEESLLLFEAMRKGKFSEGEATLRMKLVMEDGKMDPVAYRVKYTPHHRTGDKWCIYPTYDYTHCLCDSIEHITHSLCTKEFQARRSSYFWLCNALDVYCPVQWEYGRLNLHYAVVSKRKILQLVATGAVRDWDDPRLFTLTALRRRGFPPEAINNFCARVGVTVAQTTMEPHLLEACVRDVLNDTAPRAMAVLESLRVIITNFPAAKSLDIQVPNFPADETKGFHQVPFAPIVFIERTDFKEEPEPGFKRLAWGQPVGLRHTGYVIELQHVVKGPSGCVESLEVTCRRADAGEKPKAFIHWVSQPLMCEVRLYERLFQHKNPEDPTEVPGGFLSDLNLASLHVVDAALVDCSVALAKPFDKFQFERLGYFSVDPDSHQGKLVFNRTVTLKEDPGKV
UniProt Q9UL46, whole entry, looked up: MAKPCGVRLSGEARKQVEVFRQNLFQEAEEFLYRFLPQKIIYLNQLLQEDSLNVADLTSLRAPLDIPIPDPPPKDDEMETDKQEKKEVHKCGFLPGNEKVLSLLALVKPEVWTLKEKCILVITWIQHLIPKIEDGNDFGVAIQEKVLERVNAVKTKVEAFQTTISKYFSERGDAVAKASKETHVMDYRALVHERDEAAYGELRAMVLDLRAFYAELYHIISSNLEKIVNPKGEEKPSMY
UniProt P35998: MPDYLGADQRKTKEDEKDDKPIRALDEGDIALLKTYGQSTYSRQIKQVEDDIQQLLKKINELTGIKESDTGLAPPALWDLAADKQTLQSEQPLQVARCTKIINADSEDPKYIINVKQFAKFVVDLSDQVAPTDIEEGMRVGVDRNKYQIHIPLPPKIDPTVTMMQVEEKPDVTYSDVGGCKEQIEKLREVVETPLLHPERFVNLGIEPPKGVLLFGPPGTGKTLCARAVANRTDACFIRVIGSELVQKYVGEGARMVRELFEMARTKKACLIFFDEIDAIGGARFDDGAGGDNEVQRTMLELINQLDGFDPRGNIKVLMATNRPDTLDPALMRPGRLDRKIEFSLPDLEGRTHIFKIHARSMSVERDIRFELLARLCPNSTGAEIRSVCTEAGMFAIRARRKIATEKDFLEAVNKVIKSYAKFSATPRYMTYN
UniProt P11216: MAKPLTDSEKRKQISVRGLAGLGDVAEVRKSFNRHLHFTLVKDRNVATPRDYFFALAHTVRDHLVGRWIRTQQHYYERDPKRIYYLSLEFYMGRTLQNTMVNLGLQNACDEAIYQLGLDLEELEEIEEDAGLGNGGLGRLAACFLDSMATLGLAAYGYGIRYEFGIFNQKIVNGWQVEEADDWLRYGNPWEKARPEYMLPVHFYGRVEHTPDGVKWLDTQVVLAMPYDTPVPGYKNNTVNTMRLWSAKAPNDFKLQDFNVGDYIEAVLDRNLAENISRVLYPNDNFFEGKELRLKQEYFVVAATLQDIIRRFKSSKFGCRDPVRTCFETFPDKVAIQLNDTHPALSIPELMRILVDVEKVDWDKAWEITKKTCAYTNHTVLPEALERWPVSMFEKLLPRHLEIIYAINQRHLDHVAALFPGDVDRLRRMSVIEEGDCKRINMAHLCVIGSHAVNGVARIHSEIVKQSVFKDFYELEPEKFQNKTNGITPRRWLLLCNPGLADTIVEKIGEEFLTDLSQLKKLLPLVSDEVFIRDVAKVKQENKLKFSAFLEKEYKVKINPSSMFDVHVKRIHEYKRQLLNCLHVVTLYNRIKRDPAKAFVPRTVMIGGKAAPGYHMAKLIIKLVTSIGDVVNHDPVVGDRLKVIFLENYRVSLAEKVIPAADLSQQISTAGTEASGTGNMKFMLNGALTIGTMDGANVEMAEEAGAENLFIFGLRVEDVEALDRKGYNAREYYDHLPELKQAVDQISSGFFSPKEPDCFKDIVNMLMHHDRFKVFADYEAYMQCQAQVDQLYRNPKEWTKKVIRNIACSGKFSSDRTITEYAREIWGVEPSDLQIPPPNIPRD
UniProt P60900, whole entry, looked up: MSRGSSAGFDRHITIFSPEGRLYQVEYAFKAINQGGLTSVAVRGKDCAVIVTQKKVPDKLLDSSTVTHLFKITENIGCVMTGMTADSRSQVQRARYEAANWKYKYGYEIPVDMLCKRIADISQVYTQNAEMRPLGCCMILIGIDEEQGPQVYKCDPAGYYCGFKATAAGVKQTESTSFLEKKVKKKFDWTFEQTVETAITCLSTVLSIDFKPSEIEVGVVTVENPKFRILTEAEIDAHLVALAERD
UniProt Q9BXR0: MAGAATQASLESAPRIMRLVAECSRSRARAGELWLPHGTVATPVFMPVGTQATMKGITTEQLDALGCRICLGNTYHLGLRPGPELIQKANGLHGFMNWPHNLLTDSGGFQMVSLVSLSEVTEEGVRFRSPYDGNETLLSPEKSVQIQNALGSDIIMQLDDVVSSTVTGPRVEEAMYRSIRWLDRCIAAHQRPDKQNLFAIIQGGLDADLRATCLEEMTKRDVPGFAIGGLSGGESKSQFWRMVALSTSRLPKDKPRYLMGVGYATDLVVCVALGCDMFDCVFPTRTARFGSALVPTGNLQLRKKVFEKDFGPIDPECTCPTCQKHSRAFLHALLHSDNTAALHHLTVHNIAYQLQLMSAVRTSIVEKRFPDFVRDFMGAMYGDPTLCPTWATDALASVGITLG

How the values were obtained:
Assay in all cases: log2 fold change, soluble protein after heating vs DMSO (PISA); higher = thermal stabilisation; K562 cells, 10 uM, 30 min; active = over 0.2 and 3.5 SD of the protein, either way, in both replicates (recomputed)
[1] = compound: NC(=O)Nc1cc(-c2cccc(F)c2)sc1C(=O)N[C@H]1CCCNC1
How it was run: (§1)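 Aliquots of K562 cells (2×10^6 cells/mL) treated with 10 μM compound for 30 min were heated for 3 min over 48°C-58°C. After pooling and extraction in PBS with 0.5% NP-40 at 4°C, soluble protein from a 21,000xg, 90 min spin was quantified by TMTpro 16plex LC-MS/MS with channel sums equalised. Thermal stability is expressed against control samples, from duplicates, as a log2 fold change.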

[2] = compound: NC(=O)c1cnc(N[C@@H]2CCCC[C@@H]2N)nc1Nc1cccc(-n2nccn2)c1
How it was run: as §1

[3] = compound: NC1(c2ccc(-c3nc4ccn5c(=O)[nH]nc5c4cc3-c3ccccc3)cc2)CCC1
How it was run: as §1

[4] = compound: NCC(=O)Nc1ccc(-n2nc(C(F)(F)F)cc2-c2ccc3c(ccc4ccccc43)c2)cc1
How it was run: as §1

entinostat = compound: Nc1ccccc1NC(=O)c1ccc(CNC(=O)OCc2cccnc2)cc1 [entinostat]
How it was run: as §1

vorinostat = compound: O=C(CCCCCCC(=O)Nc1ccccc1)NO [vorinostat]
How it was run: as §1

citarinostat = compound: O=C(CCCCCCNC(=O)c1cnc(N(c2ccccc2)c2ccccc2Cl)nc1)NO [citarinostat]
How it was run: as §1

silmitasertib = compound: O=C(O)c1ccc2c(c1)nc(Nc1cccc(Cl)c1)c1ccncc12 [silmitasertib]
How it was run: as §1

[5] = compound: O=C1NC(=O)C(c2cnc3ccccn23)=C1c1cn2c3c(cc(F)cc13)CN(C(=O)N1CCCCC1)CC2
How it was run: as §1

[6] = compound: c1cc(OCCN2CCCCC2)cc(-c2n[nH]c3ccc(-c4nnc[nH]4)cc23)c1
How it was run: as §1

Measured: log2 fold change

PSMD6 (UniProt Q15008)
inactive: [1] -0.028 | [2] 0.037 | [3] -0.024 | [4] 0.082 | entinostat -0.045 | vorinostat -0.001 | citarinostat -0.017 | silmitasertib 0.011 | [5] 0.039 | [6] -0.063

PTGS1 isoform 6 (UniProt P23219)
inactive: [1] 0.002 | [2] -0.043 | [3] 0.012 | [4] -0.013 | entinostat -0.01 | vorinostat -0.035 | citarinostat 0.033 | silmitasertib 0.028 | [5] -0.066 | [6] -0.084

PSMC4 (UniProt P43686)
inactive: [1] 0.018 | [2] -0.016 | [3] 0.028 | [4] 0.027 | entinostat -0.023 | vorinostat -0.023 | citarinostat -0.015 | silmitasertib -0.015 | [5] 0.043 | [6] -0.051

PSMG4 isoform 2 (UniProt Q5JS54)
inactive: [1] 0.457 | [2] 0.037 | [3] 0.079 | [4] 0.085 | entinostat 0.225 | vorinostat 0.058 | citarinostat -0.079 | silmitasertib -0.144 | [5] 0.064 | [6] 0.003

PSMG1 (UniProt O95456)
inactive: [1] 0.014 | [2] 0.013 | [3] 0 | [4] 0.021 | entinostat 0.013 | vorinostat 0.002 | citarinostat 0.017 | silmitasertib -0.024 | [5] -0.007 | [6] 0

PSAP isoform 3 (UniProt P07602)
inactive: [1] -0.018 | [2] -0.023 | [3] 0.02 | [4] 0.037 | entinostat 0.061 | vorinostat -0.1 | citarinostat -0.025 | silmitasertib -0.009 | [5] 0.001 | [6] -0.045

PSAT1 (UniProt Q9Y617)
inactive: [1] 0.037 | [2] 0.015 | [3] -0.006 | [4] 0.064 | entinostat 0.003 | vorinostat -0.023 | citarinostat 0.006 | silmitasertib -0.027 | [5] -0.009 | [6] -0.012

PSME3 isoform 2 (UniProt P61289)
inactive: [1] 0.05 | [2] 0.021 | [3] 0.063 | [4] 0.073 | entinostat 0.004 | vorinostat -0.02 | citarinostat -0.011 | silmitasertib -0.042 | [5] 0.006 | [6] -0.015

PXK (UniProt Q7Z7A4)
active: [3] -0.279
inactive: [1] -0.057 | [2] -0.044 | [4] -0.073 | entinostat 0.014 | vorinostat 0.018 | citarinostat 0.021 | silmitasertib -0.002 | [5] -0.043 | [6] 0.008

PSMC3 (UniProt P17980)
inactive: [1] 0.014 | [2] -0.011 | [3] 0.046 | [4] 0.078 | entinostat -0.024 | vorinostat -0.017 | citarinostat -0.053 | silmitasertib -0.018 | [5] 0.049 | [6] -0.092

PTMS (UniProt P20962)
inactive: [1] 0.08 | [2] 0.034 | [3] 0.021 | [4] 0.045 | entinostat 0.019 | vorinostat -0.048 | citarinostat 0.012 | silmitasertib -0.065 | [5] 0.029 | [6] 0.023

PSMC6 (UniProt P62333)
inactive: [1] 0.007 | [2] 0.015 | [3] 0.069 | [4] 0.075 | entinostat -0.015 | vorinostat -0.005 | citarinostat -0.048 | silmitasertib -0.035 | [5] 0.072 | [6] -0.075

PSMA8 (UniProt Q8TAA3)
inactive: [1] 0.02 | [2] -0.007 | [3] 0.032 | [4] -0.005 | entinostat -0.037 | vorinostat -0.048 | citarinostat -0.011 | silmitasertib -0.026 | [5] 0.017 | [6] -0.028

PSMD10 (UniProt O75832)
inactive: [1] -0.01 | [2] -0.074 | [3] -0.099 | [4] 0.022 | entinostat 0.057 | vorinostat 0.039 | citarinostat 0.083 | silmitasertib 0.068 | [5] -0.107 | [6] 0.016

PSMD2 (UniProt Q13200)
inactive: [1] -0.018 | [2] 0.012 | [3] 0.005 | [4] 0.038 | entinostat -0.024 | vorinostat 0.01 | citarinostat -0.006 | silmitasertib -0.018 | [5] 0.03 | [6] -0.082

PTPA (UniProt A6PVN8)
inactive: [1] -0.015 | [2] -0.057 | [3] -0.062 | [4] -0.003 | entinostat -0.04 | vorinostat 0.099 | citarinostat -0.098 | silmitasertib 0.266 | [5] 0.05 | [6] -0.05

PUF60 (UniProt Q9UHX1)
inactive: [1] -0.112 | [2] -0.029 | [3] -0.035 | [4] -0.132 | entinostat 0.049 | vorinostat 0.028 | citarinostat 0.079 | silmitasertib -0.098 | [5] -0.025 | [6] -0.092

QARS (UniProt P47897)
inactive: [1] 0.179 | [2] 0.032 | [3] 0.253 | [4] -0.01 | entinostat 0.068 | vorinostat 0.019 | citarinostat -0.077 | silmitasertib 0.248 | [5] 0.496 | [6] -0.246

PURA (UniProt Q00577)
inactive: [1] 0.015 | [2] 0.105 | [3] 0.377 | [4] 0.036 | entinostat -0.085 | vorinostat -0.079 | citarinostat -0.141 | silmitasertib 0.248 | [5] 0.185 | [6] -0.114

PSME2 (UniProt Q9UL46)
inactive: [1] -0.062 | [2] -0.021 | [3] -0.067 | [4] -0.023 | entinostat -0.008 | vorinostat 0.023 | citarinostat 0.016 | silmitasertib 0.023 | [5] 0.007 | [6] -0.048

PSMC2 (UniProt P35998)
inactive: [1] 0.014 | [2] -0.013 | [3] 0.026 | [4] 0.091 | entinostat -0.025 | vorinostat -0.018 | citarinostat -0.04 | silmitasertib -0.015 | [5] 0.087 | [6] -0.086

PYGB (UniProt P11216)
inactive: [1] 0.209 | [2] -0.077 | [3] -0.018 | [4] -0.041 | entinostat -0.003 | vorinostat 0.063 | citarinostat 0.033 | silmitasertib -0.005 | [5] -0.105 | [6] -0.105

PSMD4 (UniProt P55036)
inactive: [1] -0.015 | [2] -0.005 | [3] 0.027 | [4] 0.093 | entinostat -0.026 | vorinostat -0.008 | citarinostat -0.016 | silmitasertib -0.027 | [5] 0.026 | [6] -0.068

PSME4 (UniProt Q14997)
inactive: [1] 0.047 | [2] -0.054 | [3] -0.204 | [4] -0.03 | entinostat 0.011 | vorinostat 0.127 | citarinostat 0.047 | silmitasertib -0.007 | [5] 0.02 | [6] -0.092

PSIP1 (UniProt O75475)
inactive: [1] 0.149 | [2] -0.015 | [3] 0.155 | [4] 0.052 | entinostat -0.012 | vorinostat 0.013 | citarinostat -0.12 | silmitasertib 0.017 | [5] 0.114 | [6] -0.118

Random excerpt: two entries already listed, in no set order.
PSIP1 (UniProt O75475)
inactive: [1] 0.149 | [2] -0.015 | [3] 0.155 | [4] 0.052 | entinostat -0.012 | vorinostat 0.013 | citarinostat -0.12 | silmitasertib 0.017 | [5] 0.114 | [6] -0.118

PSME4 (UniProt Q14997)
inactive: [1] 0.047 | [2] -0.054 | [3] -0.204 | [4] -0.03 | entinostat 0.011 | vorinostat 0.127 | citarinostat 0.047 | silmitasertib -0.007 | [5] 0.02 | [6] -0.092

Later entries:

PSMA6 (UniProt P60900)
inactive: [1] 0.015 | [2] 0.003 | [3] 0.057 | [4] 0.036 | entinostat -0.008 | vorinostat -0.032 | citarinostat -0.003 | silmitasertib 0.063 | [5] -0.004 | [6] -0.048

QTRT1 (UniProt Q9BXR0)
inactive: [1] -0.005 | [2] -0.007 | [3] -0.01 | [4] -0.018 | entinostat 0 | vorinostat -0.007 | citarinostat 0.033 | silmitasertib -0.013 | [5] -0.031 | [6] -0.027

PSMB2 (UniProt P49721)
inactive: [1] -0.1 | [2] -0.001 | [3] 0.015 | [4] 0.065 | entinostat 0.02 | vorinostat -0.061 | citarinostat 0.026 | silmitasertib 0.036 | [5] 0.038 | [6] -0.044

PTPRA (UniProt P18433)
inactive: [1] -0.172 | [2] -0.009 | [3] -0.001 | [4] 0.026 | entinostat -0.04 | vorinostat 0.028 | citarinostat 0.062 | silmitasertib 0.008 | [5] -0.018 | [6] -0.039

PYGL (UniProt P06737)
inactive: [1] 0.135 | [2] 0.012 | [3] -0.023 | [4] 0.016 | entinostat 0.028 | vorinostat 0.01 | citarinostat 0.039 | silmitasertib 0.034 | [5] -0.043 | [6] -0.041
